Source: patent US12692274B2, “Tetrahydroisoquinoline derivatives for the treatment of red blood disorders and inflammatory diseases” (Sanofi, priority 2020, dated 2026)

The chains behind the UniProt entries cited, without tags or fusion partners.
UniProt Q14145, whole entry: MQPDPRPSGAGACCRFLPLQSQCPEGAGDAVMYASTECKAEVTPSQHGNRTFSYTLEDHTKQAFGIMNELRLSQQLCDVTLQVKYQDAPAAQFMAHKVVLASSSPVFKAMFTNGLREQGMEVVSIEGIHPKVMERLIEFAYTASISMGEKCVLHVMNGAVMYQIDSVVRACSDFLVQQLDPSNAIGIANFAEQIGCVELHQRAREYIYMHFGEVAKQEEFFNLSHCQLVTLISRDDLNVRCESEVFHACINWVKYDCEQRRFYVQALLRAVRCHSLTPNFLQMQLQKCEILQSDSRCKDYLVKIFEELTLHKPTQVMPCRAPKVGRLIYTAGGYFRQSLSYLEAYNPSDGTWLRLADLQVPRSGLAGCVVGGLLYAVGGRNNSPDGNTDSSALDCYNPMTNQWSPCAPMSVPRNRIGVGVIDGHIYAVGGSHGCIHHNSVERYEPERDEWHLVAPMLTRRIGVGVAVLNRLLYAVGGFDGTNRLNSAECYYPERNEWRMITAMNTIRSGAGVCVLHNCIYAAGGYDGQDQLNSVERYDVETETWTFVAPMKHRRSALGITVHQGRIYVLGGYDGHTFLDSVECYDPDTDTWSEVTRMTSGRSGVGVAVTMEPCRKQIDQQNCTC

Tests used:
[1] = target: HIS-Keap1 full length / Biotin-Nrf2 (16-mer) (Homo sapiens, UniProt Q14145); assay: Nrf2-Keap1 biochemical assay (TR-FRET); details: read-out: ENZ IC50
[2] = test system: NQO1 activation in BEAS-2B cells; assay: BEAS-2B cellular MTT assay of NQO1 activation, 0% HSA; details: read-out: BEAS EC50 (nM) Serum Free W
Description: The growth rate of the BEAS-2B cells changed based on the lot of BEGM SingleQuots in the BEGM media. The cell growth rate was determined for each lot of SingleQuots. Ideally, cells were thawed into media with the new lot of SingleQuots and grown for two passages before testing; however, growing an active culture in the new lot of media for two to three passages before testing was also acceptable. Until the cell growth rate was determined, cells were seeded at different densities (cells/cm^2) in multiple tissue culture flasks in order to avoid the cells becoming more than 70% confluent. Cells should not go above 70% confluent as the cells differentiate when they become confluent. After the cells were grown in the new lot of media as described above, the number of cells per well needed to seed in the collagen plates was determined by seeding different numbers of cells per well and incubating for 48 hours. […]
If complete media was to be used immediately, BEBM basal media was warmed to room temperature in the hood, but not as high as 37° C. […] Once all components were added, the label that comes with the SingleQuots kit was put on the bottle of media and the date was recorded. […]
Media was added to each flask to a total volume of 8-10 mL per flask and transferred to 15 mL conical tube(s). […] The suspension was mixed with a pipette, an aliquot was removed, and the cells were counted. […]

## Cc1cc2ncc1C(CC(=O)O)c1ccc3c(c1)CN(CC3)C(=O)c1ccc(cc1)CCCCCO2 (racemic)
[1]
  IC50: 300 pM and 400 pM
[2]
  EC50: 0.1 nM

Several values for one entry are separate records, joined by “and”; a condition that tells them apart may be missing. Identical values can stand only once. Structures were worked out from names or drawings and are uncertain.
